Laboratory results from the supplement of paper PMC8728848.
The other results are listed elsewhere or left out.

Tests used:
Assay in all cases: glycan array binding signal (z-score within array); higher = stronger binding
Conditions in all cases: glycan notation: IUPAC condensed, linker removed
[1] = molecular target: Neu5Ac(a2-6)Gal(b1-4)GlcNAc(b1-2)Man(a1-3)[Neu5Ac(a2-3)Gal(b1-4)GlcNAc(b1-2)Man(a1-6)]Man(b1-4)GlcNAc(b1-4)GlcNAc
Method in brief: (§1)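 The binding signal is a Z-score computed within each array and averaged over linkers. Arrays of the same protein sequence at different concentrations or buffers were also averaged together. Data originate from 3228 arrays in the Consortium for Functional Glycomics database, kept only where the protein sequence was available.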

[2] = molecular target: Neu5Ac(a2-6)Gal(b1-4)GlcNAc(b1-2)Man(a1-3)[Neu5Ac(a2-6)Gal(b1-4)GlcNAc(b1-2)Man(a1-6)]Man(b1-4)GlcNAc(b1-4)GlcNAc
Method in brief: as §1

[3] = molecular target: Neu5Ac(a2-6)Gal(b1-4)GlcNAc(b1-2)Man(a1-3)[Neu5Ac(a2-6)Gal(b1-4)GlcNAc(b1-2)Man(a1-6)]Man(b1-4)GlcNAc(b1-4)[Fuc(a1-6)]GlcNAc
Method in brief: as §1

[4] = molecular target: Neu5Ac(a2-6)Gal(b1-4)GlcNAc(b1-2)Man(a1-6)Man(b1-4)GlcNAc(b1-4)GlcNAc
Method in brief: as §1

[5] = molecular target: Neu5Ac(a2-6)Gal(b1-4)GlcNAc(b1-2)Man(a1-6)[Gal(b1-4)GlcNAc(b1-2)Man(a1-3)]Man(b1-4)GlcNAc(b1-4)GlcNAc
Method in brief: as §1

[6] = molecular target: Neu5Ac(a2-6)Gal(b1-4)GlcNAc(b1-2)Man(a1-6)[GlcNAc(b1-2)Man(a1-3)]Man(b1-4)GlcNAc(b1-4)GlcNAc
Method in brief: as §1

[7] = molecular target: Neu5Ac(a2-6)Gal(b1-4)GlcNAc(b1-2)Man(a1-6)[Man(a1-3)]Man(b1-4)GlcNAc(b1-4)GlcNAc
Method in brief: as §1

[8] = molecular target: Neu5Ac(a2-6)Gal(b1-4)GlcNAc(b1-2)[Neu5Ac(a2-6)Gal(b1-4)GlcNAc(b1-4)]Man(a1-3)[GlcNAc(b1-4)][Neu5Ac(a2-6)Gal(b1-4)GlcNAc(b1-2)[Neu5Ac(a2-6)Gal(b1-4)GlcNAc(b1-6)]Man(a1-6)]Man(b1-4)GlcNAc(b1-4)GlcNAc
Method in brief: as §1

[9] = molecular target: Neu5Ac(a2-6)Gal(b1-4)GlcNAc(b1-2)[Neu5Ac(a2-6)Gal(b1-4)GlcNAc(b1-4)]Man(a1-3)[GlcNAc(b1-4)][Neu5Ac(a2-6)Gal(b1-4)GlcNAc(b1-4)Man(a1-6)]Man(b1-4)GlcNAc(b1-4)GlcNAc
Method in brief: as §1

[10] = molecular target: Neu5Ac(a2-6)Gal(b1-4)GlcNAc(b1-2)[Neu5Ac(a2-6)Gal(b1-4)GlcNAc(b1-6)]Man(a1-6)[Neu5Ac(a2-6)Gal(b1-4)GlcNAc(b1-2)Man(a1-3)][GlcNAc(b1-4)]Man(b1-4)GlcNAc(b1-4)GlcNAc
Method in brief: as §1

[11] = molecular target: Neu5Ac(a2-6)Gal(b1-4)GlcNAc(b1-3)Gal(b1-3)GlcNAc
Method in brief: as §1

[12] = molecular target: Neu5Ac(a2-6)Gal(b1-4)GlcNAc(b1-3)Gal(b1-4)GlcNAc
Method in brief: as §1

[13] = molecular target: Neu5Ac(a2-6)Gal(b1-4)GlcNAc(b1-3)Gal(b1-4)GlcNAc(b1-2)Man(a1-3)[Neu5Ac(a2-6)Gal(b1-4)GlcNAc(b1-3)Gal(b1-4)GlcNAc(b1-2)Man(a1-6)]GalNAc
Method in brief: as §1

[14] = molecular target: Neu5Ac(a2-6)Gal(b1-4)GlcNAc(b1-3)Gal(b1-4)GlcNAc(b1-3)Gal(b1-4)GlcNAc
Method in brief: as §1

[15] = molecular target: Neu5Ac(a2-6)Gal(b1-4)GlcNAc(b1-3)Gal(b1-4)GlcNAc(b1-3)Gal(b1-4)GlcNAc(b1-2)Man(a1-3)[Neu5Ac(a2-6)Gal(b1-4)GlcNAc(b1-3)Gal(b1-4)GlcNAc(b1-3)Gal(b1-4)GlcNAc(b1-2)Man(a1-6)]GalNAc
Method in brief: as §1

[16] = molecular target: Neu5Ac(a2-6)Gal(b1-4)GlcNAc(b1-3)Gal(b1-4)GlcNAc(b1-3)GalNAc
Method in brief: as §1

[17] = molecular target: Neu5Ac(a2-6)Gal(b1-4)GlcNAc(b1-3)Gal(b1-4)GlcNAc(b1-3)[Neu5Ac(a2-6)Gal(b1-4)GlcNAc(b1-3)Gal(b1-4)GlcNAc(b1-6)]GalNAc
Method in brief: as §1

[18] = molecular target: Neu5Ac(a2-6)Gal(b1-4)GlcNAc(b1-3)Gal(b1-4)GlcNAc(b1-6)[Gal(b1-3)]GalNAc
Method in brief: as §1

[19] = molecular target: Neu5Ac(a2-6)Gal(b1-4)GlcNAc(b1-3)Gal(b1-4)[Fuc(a1-3)]GlcNAc(b1-3)Gal(b1-4)[Fuc(a1-3)]GlcNAc
Method in brief: as §1

[20] = molecular target: Neu5Ac(a2-6)Gal(b1-4)GlcNAc(b1-3)GalNAc
Method in brief: as §1

[21] = molecular target: Neu5Ac(a2-6)Gal(b1-4)GlcNAc(b1-3)[Neu5Ac(a2-6)Gal(b1-4)GlcNAc(b1-6)]GalNAc
Method in brief: as §1

[22] = molecular target: Neu5Ac(a2-6)Gal(b1-4)GlcNAc(b1-6)GalNAc
Method in brief: as §1

[23] = molecular target: Neu5Ac(a2-6)Gal(b1-4)GlcNAc(b1-6)[Gal(b1-3)GlcNAc(b1-3)]Gal(b1-4)Glc
Method in brief: as §1

[24] = molecular target: Neu5Ac(a2-6)Gal(b1-4)GlcNAc(b1-6)[Gal(b1-3)]GalNAc
Method in brief: as §1

[25] = molecular target: Neu5Ac(a2-6)Gal(b1-4)GlcNAc6S
Method in brief: as §1

[26] = molecular target: Neu5Ac(a2-6)GalNAc
Method in brief: as §1

[27] = molecular target: Neu5Ac(a2-6)GalNAc(b1-4)GlcNAc
Method in brief: as §1

[28] = molecular target: Neu5Ac(a2-6)GalNAc(b1-4)GlcNAc6S
Method in brief: as §1

[29] = molecular target: Neu5Ac(a2-6)GlcNAc(b1-4)GlcNAc
Method in brief: as §1

[30] = molecular target: Neu5Ac(a2-6)GlcNAc(b1-4)GlcNAc(b1-4)GlcNAc
Method in brief: as §1

B1: Aap brpt (Staphylococcus epidermidis) (protein)
chain: VDGDPITSTEEIPFDKKREFDPNLAPGTEKVVQKGEPGTKTITTPTTKNPLTGEKVGEGEPTEKITKQPVDEIVHYGGEEIKTGHKDEFDPNAPKGSQTTQPGKPGVKNPDTGEVVTPPVDDVTKYGPVDGDPITSTEEIPFDKKREFDPNLAPGTEKVVQKGEPGTKTITTPTTKNPLTGEKVGEGEPTEKITKQPVDEIVHYGGEEIKPGHKDEFDPNAPKGSQEDVPGKPGVKNPDTGEVVTPPVDDVTKYGPVDGDSITSTEEIPFDKKREFDPNLAPGTEKVVQKGEPGTKTITTPTTKNPLTGEKVGEGEPTEKITKQPVDEIVHYGGEQIPQGHKDEFDPNAPVDSKTEVPGKPGVKNPDTGEVVTPPVDDVTKYGPVDGDSITSTEEIPFDKKREFDPNLAPGTEKVVQKGEPGTKTITTPTTKNPLTGEKVGEGKSTEKVTKQPVDEIVEYGPTK
glycan array binding signal (z-score) [1]: -0.038
glycan array binding signal (z-score) [2]: -1.33
glycan array binding signal (z-score) [3]: 1.38
glycan array binding signal (z-score) [4]: -0.15
glycan array binding signal (z-score) [5]: 0.913
glycan array binding signal (z-score) [6]: -0.277
glycan array binding signal (z-score) [7]: -0.164
glycan array binding signal (z-score) [8]: -0.052
glycan array binding signal (z-score) [9]: -1.33
glycan array binding signal (z-score) [10]: -0.013
glycan array binding signal (z-score) [11]: -0.549
glycan array binding signal (z-score) [12]: -0.137
glycan array binding signal (z-score) [13]: -0.165
glycan array binding signal (z-score) [14]: 0.025
glycan array binding signal (z-score) [15]: 0.366
glycan array binding signal (z-score) [16]: -0.611
glycan array binding signal (z-score) [17]: 2.85
glycan array binding signal (z-score) [18]: 2.73
glycan array binding signal (z-score) [19]: -0.198
glycan array binding signal (z-score) [20]: -1.43
glycan array binding signal (z-score) [21]: -0.098
glycan array binding signal (z-score) [22]: -0.589
glycan array binding signal (z-score) [23]: 0.258
glycan array binding signal (z-score) [24]: 0.617
glycan array binding signal (z-score) [25]: -2.06
glycan array binding signal (z-score) [26]: 1.84
glycan array binding signal (z-score) [27]: 0.115
glycan array binding signal (z-score) [28]: -0.313
glycan array binding signal (z-score) [29]: 2.43
glycan array binding signal (z-score) [30]: 0.439
